Measured values from PubChem BioAssay AID540256 (National Center for Advancing Translational Sciences (NCATS), 2011).
Screen size: about 300,000 compounds; about 3,700 (1.2%) were called active. The shares of active, inactive and inconclusive entries below differ from those in the screen. The call rests on the fitted dose curve; tested in HEK293 cells. Potencies beside an inconclusive call are fits to weak or partial responses and may not hold up.

Assay: qHTS for Inhibitors of binding or entry into cells for Lassa Virus; further: nearly all actives have a fitted effect of over 50% in size
Conditions: Lassa virus pseudotype entry inhibition, cell reporter; series mostly up to 37.9 µM
Potency means the concentration at half of the fitted maximal effect.

SMILES | Potency
CCN1Cc2cc(OC)ccc2-c2ccccc2S1(=O)=O | inconclusive: 31.5 µM [activator, single point]
O=C(Nc1c2c(nc3ccccc13)CCCC2)c1ccccc1Br | inconclusive: 25.1 µM [inhibitor, partial curve, poor fit]
COc1cccc(-c2nc(SCC(=O)Nc3ccc4c(c3)OCCO4)c(-c3ccc(C)cc3)[nH]2)c1 | inconclusive: 11.2 µM [inhibitor, partial curve, poor fit]
COc1cc(/C=N/NC(=S)NCCN2CCOCC2)cc(OC)c1O | inconclusive: 5.62 µM [activator, single point]
O=c1oc(Nc2ccccc2F)nc2ccccc12 | inactive
O=C(CN1C(=O)/C(=C2\SC(=S)N(CCS(=O)(=O)O)C2=O)c2ccccc21)Nc1cccc(Br)c1 | inconclusive: 5.62 µM [inhibitor, single point]
COc1cccc(/C=N/Nc2ccc([N+](=O)[O-])cn2)c1O | inconclusive: 1.41 µM [inhibitor, partial curve, poor fit]
Cc1ccc(O)c(NC(=S)NC(=O)COc2ccc(Br)cc2)c1 | inconclusive: 14.1 µM [inhibitor, partial curve, poor fit]
Cc1ccc(C)c(N2CCN(C(=O)C(CC(C)C)NS(=O)(=O)c3ccc4nc(C)sc4c3)CC2)c1 (stereo not given) | inconclusive: 15.8 µM [inhibitor, single point]
CCc1ccc(CC2S/C(=C(\C#N)C(C)=O)NC2=O)cc1 (stereo not given) | active: 5.8 µM
CN(C(=O)Oc1ccc(F)cc1)c1ccccc1 | inactive
COc1ccc(CC(=O)NNS(=O)(=O)c2ccc([N+](=O)[O-])cc2)cc1OC | inactive
Cc1cc(F)ccc1NC(=O)CCn1nc(C)c(S(=O)(=O)N2CCCCC2)c1C | inconclusive: 2.82 µM [inhibitor, single point]
CCN(CC(=O)Nc1ccc(NC(C)=O)cc1)C(=O)c1cccc(S(=O)(=O)N2c3ccccc3CC2C)c1 (stereo not given) | inconclusive: 35.5 µM [inhibitor, single point]
Cc1oc2cc3oc(=O)c(CC(=O)NCCC(=O)O)c(C)c3cc2c1C | inconclusive: 35.5 µM [activator, single point]
O=C(CS(=O)(=O)c1cccc(C(F)(F)F)c1)Nc1ccccc1Cl | inconclusive: 0.206 µM [activator, partial curve, poor fit]
CS(=O)(=O)N(Cc1ccccc1)c1ccc(C(=O)Nc2ccc(Cl)cc2)cc1 | inconclusive: 0.562 µM [inhibitor, full curve, poor fit]
Cc1cccc(-n2nc(C)c(C(=O)N3CCN(c4ccccc4)CC3)c2-n2cccc2)c1 | inactive
Cc1ccc(-c2cc(C(=O)N/N=C/c3ccccc3O)n[nH]2)o1 | inconclusive: 35.5 µM [inhibitor, single point]
Cn1cc(/C=N\NC(=O)c2cccs2)c2ccccc21 | inconclusive: 1.41 µM [activator, full curve, poor fit]
c1ccc(CN2CCN(C3CCCSc4ccccc43)CC2)cc1 (stereo not given) | inconclusive: 10 µM [inhibitor, partial curve, poor fit]
c1ccc(CN2CCN(CCOCCOc3cccc4ccccc34)CC2)cc1 | inactive
CCc1cc2c(=O)[nH]c(COC)nc2s1 | inactive
Cc1ccc(-c2cc(-c3ccccc3)no2)c(O)c1 | active: 5.01 µM

SMILES | Potency
O=C(NCCCCc1ccccc1)c1cccc(NC(=O)C2CCC2)c1 | inconclusive: 11.2 µM [inhibitor, partial curve, poor fit]
Cc1cnc(NC(=O)C2COc3ccccc3O2)s1 (stereo not given) | inconclusive: 8.91 µM [inhibitor, partial curve, poor fit]
C=CCNC(=O)Nc1ccc2nc(C)sc2c1 | inconclusive: 12.6 µM [activator, single point]
CCC1CCc2c(sc(NC(=O)c3cccnc3)c2C(N)=O)C1 (stereo not given) | inconclusive: 35.5 µM [activator, partial curve, poor fit]
CCOC(=O)Nc1ccc2c(c1)N(C(=O)CN1CCN3CCCC3C1)c1ccccc1CC2 (stereo not given) | inconclusive: 32.6 µM [inhibitor, single point]
Cc1cc(C)cc(OCC(=O)N2CCC(c3nc4ccccc4s3)CC2)c1 | inactive
CCCCOC(=O)Nc1nnc(CC(=O)NCc2ccccc2)s1 | inconclusive: 7.08 µM [inhibitor, partial curve, poor fit]
Cc1cccc(NC(=O)CS(=O)(=O)c2c[nH]c3ccccc23)c1C | inconclusive: 0.58 µM [activator, partial curve, poor fit]
O=C(CCc1nc(-c2ccc(Cl)cc2)no1)NC1CCCCC1 | inactive
Cc1cccc2nc(-c3ccccc3)nc(N[C@@H](CO)c3ccccc3)c12 | inconclusive: 29.1 µM [inhibitor, single point]
Cn1c(SCC(=O)Nc2ccccc2Cl)nnc1C1CC1 | inconclusive: 3.16 µM [activator, single point]
O=C(Nc1cc(F)ccc1F)C1CCN(S(=O)(=O)c2cccc3nonc23)CC1 | inactive
CCCCn1c(N)c(N(CC(C)C)C(=O)c2ccc(S(=O)(=O)N(CC)c3ccccc3)cc2)c(=O)[nH]c1=O | inconclusive: 11.2 µM [inhibitor, partial curve, poor fit]
O=C(Nc1nnc(-c2ccncc2)o1)c1ccc(Br)s1 | inconclusive: 35.5 µM [inhibitor, single point]
O=C(Nc1ccc(N2CCOCC2)cc1)c1ccc2c(c1)OCO2 | inactive
CCOC(=O)c1ccc(NC(=O)NCc2ccc(OC)cc2)cc1 | inconclusive: 7.08 µM [inhibitor, partial curve]
O=C(NCCc1ccc(Cl)cc1)c1ccc(CSCc2cccc(Cl)c2)o1 | inactive
CCCCOc1ccc(NC(=O)[C@@H]2CCCN2C(=O)C2CCN(S(=O)(=O)c3ccc(C)cc3)CC2)cc1 | inconclusive: 20.6 µM [inhibitor, single point]
Cc1ccc([N+](=O)[O-])c(OCc2ncc(Cl)n2C)c1 | inconclusive: 31.6 µM [activator, single point]
Cc1cc(-c2ccccc2)nc(N2CCN(c3ccccn3)CC2)n1 | active: 4.61 µM
Cc1cc(C)c(OCCN2CC(C)OC(C)C2)c(Br)c1 (stereo not given) | inconclusive: 11.2 µM [inhibitor, single point]
Cc1ccc(OCc2csc(N)n2)cc1 | inconclusive: 35.5 µM [inhibitor, single point]
O=C(NCCN1CCCC1)c1ccc(Br)cc1 | inactive
Cc1ccc(OCCCCNC2CCCCC2)c(C)c1 | inconclusive: 18.3 µM [inhibitor, partial curve]

SMILES | Potency
Cc1ccc(S(=O)(=O)N(C)C)cc1NC(=O)CSc1nc2ccccc2[nH]1 | inactive
Cc1cc(Cl)ccc1NC(=O)CCCn1nc(C)c2c(C)n(-c3ccccc3)nc2c1=O | inconclusive: 0.501 µM [activator, full curve, poor fit]
Cc1cc(C)cc(NC(=O)CSc2nc3sc4c(c3c(=O)[nH]2)CCCC4)c1 | inconclusive: 35.5 µM [inhibitor, single point]
COc1cc(/C=C(\C#N)c2nc3ccccc3[nH]2)cc(Br)c1OCc1ccccc1 | inconclusive: 20.6 µM [inhibitor, single point]
CCn1cc(Br)c(C(=O)Nc2sc3c(c2C(N)=O)CCCC3)n1 | inconclusive: 1.26 µM [activator, single point]
S=c1[nH]c2ccc3ccccc3c2[nH]1 | inconclusive: 35.5 µM [activator, single point]
COc1ccc(C(=O)NC(C)c2cnn(-c3ccccn3)c2C)o1 (stereo not given) | inactive
Cc1sc2nc(CSc3cccc(C(F)(F)F)c3)[nH]c(=O)c2c1C | inconclusive: 10 µM [inhibitor, partial curve, poor fit]
O=C(OCc1ccc(F)cc1)c1cc(S(=O)(=O)N2CCCCC2)ccc1N1CCOCC1 | inactive
COc1ccc2c(c1OC)C(=O)OC2CC(=O)O (stereo not given) | inactive
COc1ccc2oc(C(=O)N(C)Cc3ccc4c(c3)OCCO4)c(C)c2c1 | inactive
NC(=O)CCn1c(=O)oc2ccccc21 | inactive
Cc1ccc(Cn2nnc3c(=O)[nH]c(C4CCN(C(=O)Cc5cccs5)CC4)nc32)cc1 | inconclusive: 4.11 µM [inhibitor, full curve, poor fit]
NCCN1CCN(CCN)CC1 | inactive
O=C(OCCN1C(=O)c2cccc3c(N4CCOCC4)ccc(c23)C1=O)c1cccc(Cl)c1 | inconclusive: 7.94 µM [inhibitor, partial curve]
Cc1ccc(C(=O)Nc2ccc3oc(-c4ccccc4C)nc3c2)cc1 | inactive
O=C(CN1CCN(c2ccccc2F)CC1)N1N=CCC1c1ccccc1 (stereo not given) | inconclusive: 2.91 µM [inhibitor, full curve]
O=C(Nc1ccccc1)NC1(C(=O)NCc2ccc3c(c2)OCO3)CCCCC1 | inactive
O=[N+]([O-])c1cccc(-c2cc3cccc[n+]3cc2-c2cccc([N+](=O)[O-])c2)c1 | inactive
CC(OC(=O)c1cc(Br)ccc1O)C(=O)Nc1ccc(S(=O)(=O)N2CCCC2)cc1 (stereo not given) | inconclusive: 35.5 µM [inhibitor, single point]
CCN(CC)S(=O)(=O)c1ccc(N2CCCC2)c(NC(=O)Cc2ccc(OC)cc2)c1 | inconclusive: 11.2 µM [inhibitor, single point]
Cc1cc(NS(=O)(=O)c2ccc(NS(=O)(=O)c3ccc(Br)cc3)cc2)no1 | inconclusive: 0.0891 µM [inhibitor, full curve, poor fit]

Part of the list above in order of formula weight, largest number first:
SMILES | Potency
CC(OC(=O)c1cc(Br)ccc1O)C(=O)Nc1ccc(S(=O)(=O)N2CCCC2)cc1 (stereo not given) | inconclusive: 35.5 µM [inhibitor, single point]
Cc1cc(NS(=O)(=O)c2ccc(NS(=O)(=O)c3ccc(Br)cc3)cc2)no1 | inconclusive: 0.0891 µM [inhibitor, full curve, poor fit]
O=C(OCCN1C(=O)c2cccc3c(N4CCOCC4)ccc(c23)C1=O)c1cccc(Cl)c1 | inconclusive: 7.94 µM [inhibitor, partial curve]
O=C(OCc1ccc(F)cc1)c1cc(S(=O)(=O)N2CCCCC2)ccc1N1CCOCC1 | inactive
COc1cc(/C=C(\C#N)c2nc3ccccc3[nH]2)cc(Br)c1OCc1ccccc1 | inconclusive: 20.6 µM [inhibitor, single point]
Cc1cc(Cl)ccc1NC(=O)CCCn1nc(C)c2c(C)n(-c3ccccc3)nc2c1=O | inconclusive: 0.501 µM [activator, full curve, poor fit]
Cc1ccc(Cn2nnc3c(=O)[nH]c(C4CCN(C(=O)Cc5cccs5)CC4)nc32)cc1 | inconclusive: 4.11 µM [inhibitor, full curve, poor fit]
CCN(CC)S(=O)(=O)c1ccc(N2CCCC2)c(NC(=O)Cc2ccc(OC)cc2)c1 | inconclusive: 11.2 µM [inhibitor, single point]
CCn1cc(Br)c(C(=O)Nc2sc3c(c2C(N)=O)CCCC3)n1 | inconclusive: 1.26 µM [activator, single point]
O=C(Nc1ccccc1)NC1(C(=O)NCc2ccc3c(c2)OCO3)CCCCC1 | inactive
O=[N+]([O-])c1cccc(-c2cc3cccc[n+]3cc2-c2cccc([N+](=O)[O-])c2)c1 | inactive
Cc1sc2nc(CSc3cccc(C(F)(F)F)c3)[nH]c(=O)c2c1C | inconclusive: 10 µM [inhibitor, partial curve, poor fit]
COc1ccc2oc(C(=O)N(C)Cc3ccc4c(c3)OCCO4)c(C)c2c1 | inactive
O=C(CN1CCN(c2ccccc2F)CC1)N1N=CCC1c1ccccc1 (stereo not given) | inconclusive: 2.91 µM [inhibitor, full curve]
Cc1ccc(C(=O)Nc2ccc3oc(-c4ccccc4C)nc3c2)cc1 | inactive
COc1ccc(C(=O)NC(C)c2cnn(-c3ccccn3)c2C)o1 (stereo not given) | inactive
COc1ccc2c(c1OC)C(=O)OC2CC(=O)O (stereo not given) | inactive
S=c1[nH]c2ccc3ccccc3c2[nH]1 | inconclusive: 35.5 µM [activator, single point]
NCCN1CCN(CCN)CC1 | inactive
